Experimental data from patent publication US7388080.
No constants are given. Whether binding was seen depends on the method and setting. Some results given as binding are weak or reduced against the parent protein; the word gives no strength. Sequences can lack the tags named with a protein.

How the values were obtained:
Conditions in all cases: remark: other sources report otherwise
[1] = target: T1, TLR2^CFP (TLR2 tagged at its C-terminus with cyan fluorescent protein), stably expressed in HEK293 cells (human), O60603; assay: confocal microscopy of transfected HEK cells
[2] = target: T1, TLR2^CFP (TLR2 tagged at its C-terminus …); assay: antibody-induced capping (TL2.1 plus Alexa647 goat anti-mouse), confocal microscopy
[3] = target: T1, TLR2^CFP (TLR2 tagged at its C-terminus …); assay: confocal microscopy of TLR1-TLR2 co-transfected cells incubated with anti-TLR2
[4] = target: T1, TLR2^CFP (TLR2 tagged at its C-terminus …); assay: confocal microscopy of living co-transfected HEK293 cells; antibody-induced capping

binding [1]: binds | binding [2]: binds | binding [3]: binds | binding [4]: binds
B1: TLR1^YFP (TLR1 tagged at its C-terminus with yellow fluorescent protein), stably expressed in HEK293 cells, Q15399 25-786 (receptor, UniProt Q15399 25-786, looked up, not shown: large carriers)
chain: SEFLVDRSKNGLIHVPKDLSQKTTILNISQNYISELWTSDILSLSKLRILIISHNRIQYLDISVFKFNQELEYLDLSHNKLVKISCHPTVNLKHLDLSFNAFDALPICKEFGNMSQLKFLGLSTTHLEKSSVLPIAHLNISKVLLVLGETYGEKEDPEGLQDFNTESLHIVFPTNKEFHFILDVSVKTVANLELSNIKCVLEDNKCSYFLSILAKLQTNPKLSNLTLNNIETTWNSFIRILQLVWHTTVWYFSISNVKLQGQLDFRDFDYSGTSLKALSIHQVVSDVFGFPQSYIYEIFSNMNIKNFTVSGTRMVHMLCPSKISPFLHLDFSNNLLTDTVFENCGHLTELETLILQMNQLKELSKIAEMTTQMKSLQQLDISQNSVSYDEKKGDCSWTKSLLSLNMSSNILTDTIFRCLPPRIKVLDLHSNKIKSIPKQVVKLEALQELNVAFNSLTDLPGCGSFSSLSVLIIDHNSVSHPSADFFQSCQKMRSIKAGDNPFQCTCELGEFVKNIDQVSSEVLEGWPDSYKCDYPESYRGTLLKDFHMSELSCNITLLIVTIVATMLVLAVTVTSLCSYLDLPWYLRMVCQWTQTRRRARNIPLEELQRNLQFHAFISYSGHDSFWVKNELLPNLEKEGMQICLHERNFVPGKSIVENIITCIEKSYKSIFVLSPNFVQSEWCHYELYFAHHNLFHEGSNSLILILLEPIPQYSIPSSYHKLKSLMARRTYLEWPKEKSKRGLFWANLRAAINIKLTEQAKK
